According to the supplement of paper PMC10849652:
The list shows a part of the results.

Chains of the proteins cited; added tags and fusions are not shown. Lines headed by an entry give the natural chain unless they say otherwise; changes in a name come on top.
UniProt P42166: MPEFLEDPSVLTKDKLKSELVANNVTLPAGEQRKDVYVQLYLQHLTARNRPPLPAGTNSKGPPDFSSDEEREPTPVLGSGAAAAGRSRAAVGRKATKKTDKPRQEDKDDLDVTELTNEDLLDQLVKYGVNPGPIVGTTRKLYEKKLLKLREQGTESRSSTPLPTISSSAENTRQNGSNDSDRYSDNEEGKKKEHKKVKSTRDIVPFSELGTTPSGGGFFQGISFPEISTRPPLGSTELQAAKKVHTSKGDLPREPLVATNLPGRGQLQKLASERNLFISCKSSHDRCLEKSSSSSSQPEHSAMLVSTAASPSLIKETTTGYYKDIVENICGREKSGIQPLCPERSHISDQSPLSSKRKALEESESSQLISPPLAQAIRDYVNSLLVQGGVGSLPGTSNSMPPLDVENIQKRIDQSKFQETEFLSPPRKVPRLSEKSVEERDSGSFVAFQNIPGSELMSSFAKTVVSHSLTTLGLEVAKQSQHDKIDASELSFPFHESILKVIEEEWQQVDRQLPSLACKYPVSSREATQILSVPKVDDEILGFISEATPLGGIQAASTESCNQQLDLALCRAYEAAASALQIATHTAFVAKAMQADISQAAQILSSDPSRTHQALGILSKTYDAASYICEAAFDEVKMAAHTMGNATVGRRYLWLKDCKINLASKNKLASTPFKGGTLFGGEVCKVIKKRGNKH
UniProt Q96HA7: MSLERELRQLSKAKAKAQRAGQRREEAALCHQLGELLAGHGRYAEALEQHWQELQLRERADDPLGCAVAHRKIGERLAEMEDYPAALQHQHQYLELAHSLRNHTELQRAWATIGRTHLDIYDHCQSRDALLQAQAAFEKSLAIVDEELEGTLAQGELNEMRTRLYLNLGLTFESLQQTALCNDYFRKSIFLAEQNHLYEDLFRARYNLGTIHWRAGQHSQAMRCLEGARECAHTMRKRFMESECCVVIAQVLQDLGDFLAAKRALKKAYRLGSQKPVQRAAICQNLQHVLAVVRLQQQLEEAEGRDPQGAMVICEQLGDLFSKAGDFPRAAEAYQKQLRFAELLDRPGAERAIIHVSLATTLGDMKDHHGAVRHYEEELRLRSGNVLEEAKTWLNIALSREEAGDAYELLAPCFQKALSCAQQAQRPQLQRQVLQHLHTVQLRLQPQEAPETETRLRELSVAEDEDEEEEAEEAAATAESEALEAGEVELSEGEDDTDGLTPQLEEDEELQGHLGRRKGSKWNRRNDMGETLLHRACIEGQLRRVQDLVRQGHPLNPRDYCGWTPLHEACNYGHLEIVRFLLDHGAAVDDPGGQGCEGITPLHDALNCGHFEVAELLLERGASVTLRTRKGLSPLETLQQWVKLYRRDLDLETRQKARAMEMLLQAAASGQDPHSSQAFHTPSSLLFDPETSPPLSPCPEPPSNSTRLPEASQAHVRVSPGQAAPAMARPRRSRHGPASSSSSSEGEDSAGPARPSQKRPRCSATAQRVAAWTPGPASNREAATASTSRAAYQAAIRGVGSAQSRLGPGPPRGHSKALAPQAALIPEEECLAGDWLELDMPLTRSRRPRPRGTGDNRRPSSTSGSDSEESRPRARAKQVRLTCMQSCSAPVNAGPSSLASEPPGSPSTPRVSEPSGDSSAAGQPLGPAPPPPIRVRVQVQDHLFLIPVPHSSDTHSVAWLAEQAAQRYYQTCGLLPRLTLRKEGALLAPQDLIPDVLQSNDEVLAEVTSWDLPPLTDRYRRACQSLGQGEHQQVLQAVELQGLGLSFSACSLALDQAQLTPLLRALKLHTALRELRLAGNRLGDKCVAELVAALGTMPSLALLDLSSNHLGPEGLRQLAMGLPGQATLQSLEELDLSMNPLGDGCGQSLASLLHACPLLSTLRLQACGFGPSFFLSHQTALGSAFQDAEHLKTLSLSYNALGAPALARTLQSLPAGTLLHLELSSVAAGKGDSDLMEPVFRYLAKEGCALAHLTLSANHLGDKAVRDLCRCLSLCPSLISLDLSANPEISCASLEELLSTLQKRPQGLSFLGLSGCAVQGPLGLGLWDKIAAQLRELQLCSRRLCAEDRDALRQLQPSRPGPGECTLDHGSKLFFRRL
UniProt Q6NUQ4: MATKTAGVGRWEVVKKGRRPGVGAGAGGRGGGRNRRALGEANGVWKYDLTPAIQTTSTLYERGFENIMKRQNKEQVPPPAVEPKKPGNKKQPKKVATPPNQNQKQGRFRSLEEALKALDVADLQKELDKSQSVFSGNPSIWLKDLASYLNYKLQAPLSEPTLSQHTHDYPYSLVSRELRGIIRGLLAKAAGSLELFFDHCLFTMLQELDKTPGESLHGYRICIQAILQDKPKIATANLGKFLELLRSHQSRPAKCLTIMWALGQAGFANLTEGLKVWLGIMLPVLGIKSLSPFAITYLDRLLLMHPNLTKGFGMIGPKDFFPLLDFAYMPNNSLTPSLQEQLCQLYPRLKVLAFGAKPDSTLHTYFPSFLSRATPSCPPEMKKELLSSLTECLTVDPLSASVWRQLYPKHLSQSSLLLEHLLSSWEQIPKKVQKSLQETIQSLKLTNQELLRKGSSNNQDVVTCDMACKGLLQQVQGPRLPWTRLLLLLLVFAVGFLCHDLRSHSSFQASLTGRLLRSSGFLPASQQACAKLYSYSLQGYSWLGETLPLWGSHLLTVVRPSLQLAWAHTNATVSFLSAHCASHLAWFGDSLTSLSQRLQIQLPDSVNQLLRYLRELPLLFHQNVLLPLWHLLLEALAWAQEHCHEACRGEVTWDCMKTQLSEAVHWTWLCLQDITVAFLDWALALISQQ
UniProt Q2T9K0: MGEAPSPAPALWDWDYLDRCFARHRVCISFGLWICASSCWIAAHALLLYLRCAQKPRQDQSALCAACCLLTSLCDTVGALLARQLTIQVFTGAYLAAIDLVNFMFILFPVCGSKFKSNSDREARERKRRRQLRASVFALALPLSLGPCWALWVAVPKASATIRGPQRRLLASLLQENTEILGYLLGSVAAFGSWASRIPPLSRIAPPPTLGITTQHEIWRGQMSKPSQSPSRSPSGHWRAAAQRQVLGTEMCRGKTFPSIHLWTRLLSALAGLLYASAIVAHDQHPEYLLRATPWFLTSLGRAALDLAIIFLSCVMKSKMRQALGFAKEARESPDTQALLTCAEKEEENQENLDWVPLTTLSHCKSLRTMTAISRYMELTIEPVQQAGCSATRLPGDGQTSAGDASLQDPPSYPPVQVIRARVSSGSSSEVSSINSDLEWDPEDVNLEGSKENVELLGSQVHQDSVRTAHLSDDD
UniProt P60174, whole entry, looked up: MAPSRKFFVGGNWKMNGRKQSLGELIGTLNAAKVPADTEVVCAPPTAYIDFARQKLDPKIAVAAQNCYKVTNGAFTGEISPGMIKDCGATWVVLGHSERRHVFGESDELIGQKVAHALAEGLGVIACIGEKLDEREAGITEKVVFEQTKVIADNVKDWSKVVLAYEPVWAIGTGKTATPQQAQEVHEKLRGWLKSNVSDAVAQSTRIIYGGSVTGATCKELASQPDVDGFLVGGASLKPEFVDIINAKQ
UniProt O94842: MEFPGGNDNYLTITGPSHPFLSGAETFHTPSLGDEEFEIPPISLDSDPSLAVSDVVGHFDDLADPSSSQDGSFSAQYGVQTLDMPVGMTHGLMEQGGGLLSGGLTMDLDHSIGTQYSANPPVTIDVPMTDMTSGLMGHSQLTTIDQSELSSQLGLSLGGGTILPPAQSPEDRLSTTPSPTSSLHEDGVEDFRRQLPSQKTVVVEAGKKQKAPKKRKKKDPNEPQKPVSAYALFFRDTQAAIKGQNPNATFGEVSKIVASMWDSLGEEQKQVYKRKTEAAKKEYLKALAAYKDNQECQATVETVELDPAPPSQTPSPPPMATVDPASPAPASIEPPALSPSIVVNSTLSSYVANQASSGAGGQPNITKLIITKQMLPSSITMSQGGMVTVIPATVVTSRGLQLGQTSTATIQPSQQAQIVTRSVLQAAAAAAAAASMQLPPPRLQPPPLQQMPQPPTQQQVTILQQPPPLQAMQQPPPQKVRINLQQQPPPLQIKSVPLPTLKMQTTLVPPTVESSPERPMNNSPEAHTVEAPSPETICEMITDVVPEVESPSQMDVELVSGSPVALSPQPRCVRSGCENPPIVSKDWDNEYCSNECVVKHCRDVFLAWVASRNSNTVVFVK
UniProt Q9H0R3: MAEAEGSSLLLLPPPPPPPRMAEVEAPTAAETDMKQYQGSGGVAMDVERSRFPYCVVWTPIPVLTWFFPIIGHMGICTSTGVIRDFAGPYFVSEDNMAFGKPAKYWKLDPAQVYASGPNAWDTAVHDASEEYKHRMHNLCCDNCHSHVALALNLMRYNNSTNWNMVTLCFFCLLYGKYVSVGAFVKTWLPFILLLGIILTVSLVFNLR
UniProt Q8N511: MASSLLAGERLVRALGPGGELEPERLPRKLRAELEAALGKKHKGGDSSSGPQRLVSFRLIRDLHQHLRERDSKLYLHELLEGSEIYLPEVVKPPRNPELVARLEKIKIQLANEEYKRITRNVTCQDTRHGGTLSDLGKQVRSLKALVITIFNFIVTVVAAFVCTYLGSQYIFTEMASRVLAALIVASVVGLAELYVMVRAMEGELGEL
UniProt Q13472: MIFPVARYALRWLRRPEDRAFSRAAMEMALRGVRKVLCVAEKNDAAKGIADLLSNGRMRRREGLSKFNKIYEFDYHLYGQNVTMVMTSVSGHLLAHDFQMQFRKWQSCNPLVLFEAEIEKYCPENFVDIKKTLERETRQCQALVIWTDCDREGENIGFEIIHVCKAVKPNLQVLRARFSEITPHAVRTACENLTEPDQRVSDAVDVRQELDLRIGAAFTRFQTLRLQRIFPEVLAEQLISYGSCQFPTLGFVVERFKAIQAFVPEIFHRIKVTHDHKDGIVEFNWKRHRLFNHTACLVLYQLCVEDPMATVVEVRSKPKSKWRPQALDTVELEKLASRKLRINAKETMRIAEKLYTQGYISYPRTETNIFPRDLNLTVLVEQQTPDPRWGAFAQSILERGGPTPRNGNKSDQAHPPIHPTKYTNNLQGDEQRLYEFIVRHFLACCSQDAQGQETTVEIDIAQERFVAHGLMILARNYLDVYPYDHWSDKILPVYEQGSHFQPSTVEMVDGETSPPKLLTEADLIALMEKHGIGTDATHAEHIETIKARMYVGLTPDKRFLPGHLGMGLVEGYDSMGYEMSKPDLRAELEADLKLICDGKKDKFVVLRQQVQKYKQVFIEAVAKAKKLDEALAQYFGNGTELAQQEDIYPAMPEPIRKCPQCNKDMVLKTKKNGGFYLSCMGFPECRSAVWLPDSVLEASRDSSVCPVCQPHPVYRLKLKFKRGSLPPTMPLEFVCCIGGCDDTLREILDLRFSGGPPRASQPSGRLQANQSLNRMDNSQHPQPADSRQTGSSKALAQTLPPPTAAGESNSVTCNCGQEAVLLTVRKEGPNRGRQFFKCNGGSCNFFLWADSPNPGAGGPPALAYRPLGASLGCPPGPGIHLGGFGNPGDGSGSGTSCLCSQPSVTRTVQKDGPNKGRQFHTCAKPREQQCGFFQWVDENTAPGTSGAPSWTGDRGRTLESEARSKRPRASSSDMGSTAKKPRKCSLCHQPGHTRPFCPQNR
UniProt Q59H18: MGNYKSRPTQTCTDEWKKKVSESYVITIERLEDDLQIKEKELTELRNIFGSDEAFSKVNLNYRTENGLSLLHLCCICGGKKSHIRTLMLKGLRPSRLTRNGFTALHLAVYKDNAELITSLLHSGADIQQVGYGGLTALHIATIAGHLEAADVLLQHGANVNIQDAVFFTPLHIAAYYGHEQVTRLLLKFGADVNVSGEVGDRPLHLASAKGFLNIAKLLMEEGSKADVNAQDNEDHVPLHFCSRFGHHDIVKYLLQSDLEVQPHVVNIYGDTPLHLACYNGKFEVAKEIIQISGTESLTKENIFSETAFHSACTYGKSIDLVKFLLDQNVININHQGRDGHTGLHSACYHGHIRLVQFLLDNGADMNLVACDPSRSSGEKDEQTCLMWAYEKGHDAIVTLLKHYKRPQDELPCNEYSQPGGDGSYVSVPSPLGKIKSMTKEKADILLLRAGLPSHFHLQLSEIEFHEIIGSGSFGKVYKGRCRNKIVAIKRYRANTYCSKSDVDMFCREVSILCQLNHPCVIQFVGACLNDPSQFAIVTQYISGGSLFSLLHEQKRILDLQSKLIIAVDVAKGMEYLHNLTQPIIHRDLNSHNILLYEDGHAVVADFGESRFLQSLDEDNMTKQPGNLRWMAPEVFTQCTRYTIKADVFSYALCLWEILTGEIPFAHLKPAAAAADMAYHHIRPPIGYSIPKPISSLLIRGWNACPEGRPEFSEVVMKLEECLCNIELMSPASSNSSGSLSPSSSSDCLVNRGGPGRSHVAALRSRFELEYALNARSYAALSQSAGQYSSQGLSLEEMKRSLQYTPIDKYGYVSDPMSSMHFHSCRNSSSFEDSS
UniProt Q9P0T7: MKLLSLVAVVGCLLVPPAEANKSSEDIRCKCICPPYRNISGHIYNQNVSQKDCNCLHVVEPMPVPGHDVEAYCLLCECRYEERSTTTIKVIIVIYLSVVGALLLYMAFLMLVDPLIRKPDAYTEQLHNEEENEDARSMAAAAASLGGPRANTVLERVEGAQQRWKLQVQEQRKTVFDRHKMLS

Assays:
Test in all cases: log2 fold change, soluble protein after heating vs DMSO (PISA); higher = thermal stabilisation; K562 lysate, 10 uM; active = over 0.2 and 3.5 SD of the protein, either way, in both replicates (recomputed)
[1] = compound: CS(=O)(=O)CCNCc1ccc(-c2ccc3ncnc(Nc4ccc(OCc5cccc(F)c5)c(Cl)c4)c3c2)o1 [lapatinib]
Summary of the method: (§1)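 Pellets of K562 cells were dounce-homogenised in PBS pH 7.4 with 1 mM MgCl2, and the crude extract was held at 1 mg/mL protein for a 30 min treatment with 10 μM compound. Aliquots were heated for 3 min over 48°C-58°C and pooled before NP-40 was added to 0.5% at 4°C. The supernatant from 21,000xg for 90 min was quantified by TMTpro 16plex LC-MS/MS with channel sums equalised. Values are reported from duplicates as log-two fold change in thermal stability relative to solvent controls.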

[2] = compound: CS(=O)(=O)N1CCN(Cc2cc3nc(-c4cccc5[nH]ncc45)nc(N4CCOCC4)c3s2)CC1 [pictilisib]
Summary of the method: as §1

[3] = compound: C[C@@H](Oc1cc(-c2cnn(C3CCNCC3)c2)cnc1N)c1c(Cl)ccc(F)c1Cl [crizotinib]
Summary of the method: as §1

[4] = compound: C[C@H](C1=CC=C(C=C1)C(=O)NC2=C3C=CNC3=NC=C2)N
Summary of the method: as §1

[5] = compound: C[C@H](Nc1ncnc2nc[nH]c12)c1cc2cccc(Cl)c2c(=O)n1-c1ccccc1 [duvelisib]
Summary of the method: as §1

[6] = compound: Cc1cc(Nc2cc(CN3CCOCC3)c3nc(C)c(Cc4ccc(Cl)cc4F)n3n2)n[nH]1 [gandotinib]
Summary of the method: as §1

[7] = compound: Cc1cc(Nc2cc(N3CCN(C)CC3)nc(Sc3ccc(NC(=O)C4CC4)cc3)n2)n[nH]1 [tozasertib]
Summary of the method: as §1

[8] = compound: Cc1ccc(-n2nc(C(C)(C)C)cc2NC(=O)Nc2ccc(OCCN3CCOCC3)c3ccccc23)cc1 [doramapimod]
Summary of the method: as §1

[9] = compound: Cc1ccc(NC(=O)c2ccc(CN3CC[C@H](N(C)C)C3)c(C(F)(F)F)c2)cc1Nc1nccc(-c2cncnc2)n1 [bafetinib]
Summary of the method: as §1

[10] = compound: Cc1cccc(CC(=O)N2CCc3c2ccc(-c2cn(C)c4ncnc(N)c24)c3F)n1
Summary of the method: as §1

[11] = compound: Cc1cn(-c2cc(NC(=O)c3ccc(C)c(Nc4nccc(-c5cccnc5)n4)c3)cc(C(F)(F)F)c2)cn1 [nilotinib]
Summary of the method: as §1

[12] = compound: Cc1nc(Nc2n[nH]c3c2CN(C(=O)N[C@H](CN(C)C)c2ccccc2)C3(C)C)c2sccc2n1
Summary of the method: as §1

[13] = compound: Cc1nc(Nc2ncc(C(=O)Nc3c(C)cccc3Cl)s2)cc(N2CCN(CCO)CC2)n1 [dasatinib]
Summary of the method: as §1

[14] = compound: Cc1ncc(-c2ccnc(Nc3ccc(S(C)(=O)=O)cc3)n2)n1C(C)C
Summary of the method: as §1

[15] = compound: Cn1cc(-c2ccc3c(c2)CCN3C(=O)Cc2cccc(C(F)(F)F)c2)c2c(N)ncnc21
Summary of the method: as §1

[16] = compound: Cn1cc(CNCC2CCN(c3ncc(C(=O)NO)cn3)CC2)c2ccccc21 [quisinostat]
Summary of the method: as §1

[17] = compound: Cn1cncc1[C@@](N)(c1ccc(Cl)cc1)c1ccc2c(c1)c(-c1cccc(Cl)c1)cc(=O)n2C [tipifarnib]
Summary of the method: as §1

[18] = compound: NC(=O)Nc1cc(-c2cccc(F)c2)sc1C(=O)N[C@H]1CCCNC1
Summary of the method: as §1

[19] = compound: NC(=O)c1cnc(N[C@@H]2CCCC[C@@H]2N)nc1Nc1cccc(-n2nccn2)c1
Summary of the method: as §1

[20] = compound: NC1(c2ccc(-c3nc4ccn5c(=O)[nH]nc5c4cc3-c3ccccc3)cc2)CCC1
Summary of the method: as §1

Row | Target | log2 fold change [1] | log2 fold change [2] | log2 fold change [3] | log2 fold change [4] | log2 fold change [5] | log2 fold change [6] | log2 fold change [7] | log2 fold change [8] | log2 fold change [9] | log2 fold change [10] | log2 fold change [11] | log2 fold change [12] | log2 fold change [13] | log2 fold change [14] | log2 fold change [15] | log2 fold change [16] | log2 fold change [17] | log2 fold change [18] | log2 fold change [19] | log2 fold change [20]
1 | TMX1 (UniProt Q9H3N1) | inactive: -0.038 | inactive: -0.003 | inactive: 0.081 | inactive: -0.032 | inactive: -0.016 | inactive: 0.045 | inactive: 0.036 | inactive: 0.039 | inactive: -0.038 | inactive: -0.017 | inactive: -0.011 | inactive: 0 | inactive: -0.021 | inactive: -0.031 | inactive: -0.008 | inactive: 0.125 | inactive: -0.025 | inactive: -0.022 | inactive: 0.123 | inactive: 0.039
2 | TMPO (UniProt P42166) | inactive: 0.018 | inactive: -0.012 | inactive: 0.016 | inactive: -0.179 | inactive: 0.023 | inactive: -0.048 | inactive: 0.016 | inactive: -0.017 | inactive: -0.021 | inactive: 0.034 | inactive: 0.05 | inactive: -0.178 | inactive: -0.069 | inactive: -0.036 | inactive: 0.029 | inactive: -0.041 | inactive: -0.018 | inactive: 0.035 | inactive: 0.031 | inactive: -0.006
3 | TONSL (UniProt Q96HA7) | inactive: -0.048 | inactive: -0.115 | inactive: -0.038 | inactive: -0.063 | inactive: 0.076 | inactive: -0.064 | inactive: -0.035 | inactive: 0.057 | inactive: -0.035 | inactive: -0.007 | inactive: -0.011 | inactive: 0.008 | inactive: 0.019 | inactive: -0.018 | inactive: -0.036 | inactive: -0.083 | inactive: -0.059 | inactive: 0.065 | inactive: 0.047 | inactive: -0.007
4 | TMEM214 (UniProt Q6NUQ4) | inactive: -0.028 | inactive: -0.02 | inactive: -0.009 | inactive: 0.045 | inactive: -0.064 | inactive: -0.058 | inactive: 0.055 | inactive: 0.023 | inactive: -0.026 | inactive: 0.038 | inactive: -0.046 | inactive: 0.018 | inactive: -0.017 | inactive: 0.004 | inactive: -0.012 | inactive: 0.014 | inactive: -0.013 | inactive: 0.05 | inactive: -0.002 | inactive: 0.048
5 | TMEM94 isoform 2 (UniProt Q12767) | inactive: 0.042 | inactive: -0.074 | inactive: 0.003 |  | inactive: 0.059 |  | inactive: 0.059 | inactive: -0.141 | inactive: -0.054 |  |  |  | inactive: 0.026 |  | inactive: -0.094 | inactive: 0.043 |  | inactive: 0.012 | inactive: 0.17 | inactive: -0.006
6 | TOM1 (UniProt O60784) | inactive: 0.03 | inactive: -0.07 |  | inactive: 0.085 | inactive: -0.028 | inactive: -0.034 | inactive: 0.116 |  | inactive: -0.003 | inactive: -0.027 |  |  | inactive: -0.033 |  | inactive: 0 |  |  |  | inactive: -0.006 | inactive: -0.243
7 | TMEM205 (UniProt Q6UW68) | inactive: 0.033 | inactive: 0.097 | inactive: -0.075 |  | inactive: 0.027 |  | inactive: -0.06 | inactive: -0.003 | inactive: -0.085 |  | inactive: -0.058 | inactive: 0.079 | inactive: 0.019 | inactive: 0.062 | inactive: -0.034 | inactive: -0.097 | inactive: 0.166 | inactive: -0.072 | inactive: -0.053 | inactive: -0.023
8 | TMEM44 (UniProt Q2T9K0) | inactive: -0.103 | inactive: -0.136 |  |  | inactive: 0.233 |  | inactive: -0.009 |  | inactive: -0.141 |  |  |  | inactive: 0.134 |  | inactive: 0.057 |  |  |  | inactive: 0.076 | 
9 | TNFRSF10B (UniProt O14763) | inactive: -0.003 | inactive: -0.016 | inactive: 0.031 | inactive: -0.061 | inactive: -0.01 | inactive: 0.006 | inactive: 0.086 | inactive: -0.019 | inactive: -0.034 | inactive: 0.005 | inactive: 0.01 | inactive: -0.046 | inactive: 0.054 | inactive: 0.04 | inactive: -0.028 | inactive: 0.026 | inactive: -0.01 | inactive: -0.067 | inactive: 0.02 | inactive: 0.001
10 | TMEM41B (UniProt Q5BJD5) | inactive: -0.067 | inactive: 0.056 | inactive: 0.027 | inactive: -0.029 | inactive: 0.088 | inactive: -0.094 | inactive: -0.056 | inactive: -0.084 | inactive: 0.125 | inactive: 0.03 |  |  | inactive: 0.064 |  | inactive: 0.02 | inactive: 0.098 |  | inactive: -0.01 | inactive: 0.047 | inactive: 0.007
11 | TPI1 (UniProt P60174) | inactive: -0.02 | inactive: 0.054 | inactive: -0.036 | inactive: -0.176 | inactive: -0.006 | inactive: 0.07 | inactive: -0.092 | inactive: -0.018 | inactive: -0.164 | inactive: 0.004 | inactive: -0.003 | inactive: 0.008 | inactive: -0.004 | inactive: 0.016 | inactive: -0.011 | inactive: -0.11 | inactive: 0.019 | inactive: 0.027 | inactive: -0.031 | inactive: -0.007
12 | TOX4 (UniProt O94842) | inactive: 0.058 | inactive: 0.025 | inactive: -0.068 | active: -0.259 | inactive: 0.06 | active: 0.231 | inactive: -0.094 | inactive: 0.041 | inactive: -0.043 | inactive: 0.189 | inactive: -0.056 | inactive: -0.019 | inactive: 0.001 | inactive: 0.073 | inactive: 0.009 | inactive: -0.018 | inactive: -0.02 | inactive: -0.017 | inactive: 0.017 | inactive: 0.034
13 | TNRC6C isoform 2 (UniProt Q9HCJ0) | inactive: -0.008 | inactive: -0.275 |  | inactive: 0.013 | inactive: 0.239 | inactive: -0.481 | inactive: -0.11 |  | inactive: 0.055 | inactive: 0.05 |  |  | inactive: 0.12 |  | inactive: 0.019 |  |  |  | inactive: 0.018 | inactive: -0.005
14 | TMEM222 (UniProt Q9H0R3) | inactive: -0.114 | inactive: -0.018 | inactive: -0.004 |  | inactive: 0.037 |  | inactive: -0.153 | inactive: 0.012 | inactive: -0.001 |  | inactive: 0.06 | inactive: -0.021 | inactive: 0.042 | inactive: -0.028 | inactive: 0.052 | inactive: -0.032 | inactive: -0.208 | inactive: 0.032 | inactive: -0.09 | inactive: -0.059
15 | TMEM199 (UniProt Q8N511) | inactive: -0.034 | inactive: -0.035 | inactive: 0.062 | inactive: -0.053 | inactive: 0.051 | inactive: 0.016 | inactive: 0.074 | inactive: -0.068 | inactive: -0.016 | inactive: 0.099 | inactive: 0.005 | inactive: 0.005 | inactive: -0.011 | inactive: 0.001 | inactive: 0.046 | inactive: 0.031 | inactive: 0.026 | inactive: 0 | inactive: 0.005 | inactive: 0.068
16 | TOP3A (UniProt Q13472) | inactive: 0.117 | inactive: -0.02 | inactive: -0.024 | inactive: -0.066 | inactive: 0.057 | inactive: -0.088 | inactive: 0.238 | inactive: 0.053 | inactive: 0.1 | inactive: -0.009 | inactive: -0.023 | inactive: 0.018 | inactive: 0 | inactive: -0.02 | inactive: -0.008 | inactive: 0.022 | inactive: 0.06 | inactive: -0.018 | inactive: -0.041 | inactive: 0.096
17 | TNNI3K isoform 1 (UniProt Q59H18) | inactive: 0.024 | inactive: 0.012 |  | inactive: -0.019 | inactive: 0.023 | inactive: -0.026 | inactive: -0.067 | inactive: 0.024 | inactive: -0.011 | inactive: 0.034 | inactive: 0.055 | inactive: -0.013 | inactive: -0.069 | inactive: -0.054 | inactive: -0.027 | inactive: -0.012 | inactive: -0.027 | inactive: 0.045 | inactive: -0.081 | inactive: -0.051
18 | TMEM9 (UniProt Q9P0T7) | inactive: -0.007 | inactive: -0.016 | inactive: 0.025 | inactive: 0.002 | inactive: 0.004 | inactive: -0.027 |  | inactive: -0.047 | inactive: 0.046 | inactive: 0.006 | inactive: 0.058 | inactive: 0.03 | inactive: 0.034 | inactive: 0.026 | inactive: 0.025 | inactive: 0.049 | inactive: -0.046 | inactive: -0.013 | inactive: -0.024 | inactive: -0.032

Laid out differently: results already given
Row	Target	log2 fold change [1]	log2 fold change [2]	log2 fold change [3]	log2 fold change [4]	log2 fold change [5]	log2 fold change [6]	log2 fold change [7]	log2 fold change [8]	log2 fold change [9]	log2 fold change [10]	log2 fold change [11]	log2 fold change [12]	log2 fold change [13]	log2 fold change [14]	log2 fold change [15]	log2 fold change [16]	log2 fold change [17]	log2 fold change [18]	log2 fold change [19]	log2 fold change [20]
11	TPI1 (UniProt P60174)	inactive: -0.02	inactive: 0.054	inactive: -0.036	inactive: -0.176	inactive: -0.006	inactive: 0.07	inactive: -0.092	inactive: -0.018	inactive: -0.164	inactive: 0.004	inactive: -0.003	inactive: 0.008	inactive: -0.004	inactive: 0.016	inactive: -0.011	inactive: -0.11	inactive: 0.019	inactive: 0.027	inactive: -0.031	inactive: -0.007
12	TOX4 (UniProt O94842)	inactive: 0.058	inactive: 0.025	inactive: -0.068	active: -0.259	inactive: 0.06	active: 0.231	inactive: -0.094	inactive: 0.041	inactive: -0.043	inactive: 0.189	inactive: -0.056	inactive: -0.019	inactive: 0.001	inactive: 0.073	inactive: 0.009	inactive: -0.018	inactive: -0.02	inactive: -0.017	inactive: 0.017	inactive: 0.034
